Experimental findings from PMC5353548 are described below.

Protein sequences, listed by entry. Tags and fused reporters are not part of them.
UniProt O08530: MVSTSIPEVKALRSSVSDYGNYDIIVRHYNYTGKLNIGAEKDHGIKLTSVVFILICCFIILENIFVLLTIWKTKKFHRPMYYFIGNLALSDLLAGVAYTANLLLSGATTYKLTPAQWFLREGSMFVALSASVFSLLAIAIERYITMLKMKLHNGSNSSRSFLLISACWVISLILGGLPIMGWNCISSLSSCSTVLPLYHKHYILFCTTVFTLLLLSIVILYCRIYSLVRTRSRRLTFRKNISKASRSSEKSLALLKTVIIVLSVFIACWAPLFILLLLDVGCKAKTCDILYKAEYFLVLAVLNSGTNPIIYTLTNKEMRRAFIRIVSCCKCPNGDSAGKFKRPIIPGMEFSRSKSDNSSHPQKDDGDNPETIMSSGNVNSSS
UniProt P32121: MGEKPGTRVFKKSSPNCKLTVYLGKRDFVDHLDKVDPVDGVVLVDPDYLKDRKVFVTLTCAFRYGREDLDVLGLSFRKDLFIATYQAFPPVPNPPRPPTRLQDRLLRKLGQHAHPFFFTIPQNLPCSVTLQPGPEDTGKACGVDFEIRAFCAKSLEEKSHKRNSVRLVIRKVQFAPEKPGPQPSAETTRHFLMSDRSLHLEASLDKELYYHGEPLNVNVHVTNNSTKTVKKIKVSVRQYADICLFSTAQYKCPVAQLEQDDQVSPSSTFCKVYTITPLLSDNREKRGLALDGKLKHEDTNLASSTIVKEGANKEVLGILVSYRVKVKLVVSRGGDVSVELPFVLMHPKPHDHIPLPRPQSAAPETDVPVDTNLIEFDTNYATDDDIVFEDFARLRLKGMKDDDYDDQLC

The target in the assay is S1P1 receptor-FLAG (UniProt O08530). In words: co-IP; SH-SY5Y cells, serum-starved 18 hr with or without 1 μM α-Syn(A53T), 100 nM S1P for the indicated times, cross-linked with 2 mM DSP for 20 min, lysed in 0.2% DDM buffer; anti-FLAG beads; blot with anti-β-arrestin 2.

These are yes or no findings as the source states them, for the method shown. Binding seen in cells or lysates may run through a third protein. Some entries that bind do so weakly or less than the wild type.

For “β-arrestin 2-YFP (from UniProt P32121 1-409)”, the binding result is on record as “binds”.
